According to PMC13213242, “A novel ψ–χ fusion protein for unravelling the contributions of χ to DNA replication and repair” (Nucleic Acids Research, 2026):
Substitutions are numbered along the chain they refer to. Results are given in words; binding and its absence hold for the method and conditions named. Some results given as binding are weak or reduced against the parent protein; the word gives no strength. For some of these results: Tags and fused reporters may be left off the sequences shown. Each block holds one molecule with its values, some of them ahead of it.

Sequences of proteins named here, by UniProt entry; tags and fusion partners are left off.
UniProt P0AGE0: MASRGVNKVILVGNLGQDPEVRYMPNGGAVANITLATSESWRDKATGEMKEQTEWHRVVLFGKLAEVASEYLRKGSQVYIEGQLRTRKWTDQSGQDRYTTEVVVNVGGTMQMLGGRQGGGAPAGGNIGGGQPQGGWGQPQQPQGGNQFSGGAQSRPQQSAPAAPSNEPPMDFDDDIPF
UniProt P28905: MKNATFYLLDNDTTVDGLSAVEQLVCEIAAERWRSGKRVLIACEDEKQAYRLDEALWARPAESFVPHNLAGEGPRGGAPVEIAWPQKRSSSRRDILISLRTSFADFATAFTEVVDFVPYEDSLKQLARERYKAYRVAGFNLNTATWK

Experiments:
Assay in all cases: two-hybrid; Matchmaker GAL4 Two-Hybrid System 3; GAL4 BD and AD fusions in both orientations; growth on −HIS plates (HIS3 reporter), 30°C, 2–3 days
[1] = target: T1, YoaA (WT), two-hybrid fusion (E. coli) (UniProt P76257)
T1 sequence: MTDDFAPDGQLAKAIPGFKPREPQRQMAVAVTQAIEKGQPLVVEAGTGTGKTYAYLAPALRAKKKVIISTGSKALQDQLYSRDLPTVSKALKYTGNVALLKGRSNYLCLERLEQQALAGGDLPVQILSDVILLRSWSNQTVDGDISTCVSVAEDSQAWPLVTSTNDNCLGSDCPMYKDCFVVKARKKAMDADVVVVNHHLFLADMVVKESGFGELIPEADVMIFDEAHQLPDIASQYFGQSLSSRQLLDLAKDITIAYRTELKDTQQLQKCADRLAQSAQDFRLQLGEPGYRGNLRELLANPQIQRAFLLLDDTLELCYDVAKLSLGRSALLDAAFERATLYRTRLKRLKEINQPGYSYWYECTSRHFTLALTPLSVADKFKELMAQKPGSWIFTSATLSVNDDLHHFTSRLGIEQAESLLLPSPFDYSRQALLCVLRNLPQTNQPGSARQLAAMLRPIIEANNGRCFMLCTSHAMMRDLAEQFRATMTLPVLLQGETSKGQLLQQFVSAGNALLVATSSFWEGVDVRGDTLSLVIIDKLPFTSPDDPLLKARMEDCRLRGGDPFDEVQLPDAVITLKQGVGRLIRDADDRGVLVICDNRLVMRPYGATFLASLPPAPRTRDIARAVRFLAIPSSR

[2] = target: single-stranded DNA-binding protein (SSB), two-hybrid fusion (E. coli) (UniProt P0AGE0)
[3] = target: T2, YoaA_T620A, two-hybrid fusion (E. coli) (UniProt P76257)
T2 sequence: T1 sequence with T620A

[4] = target: χ (HolC), two-hybrid fusion (E. coli) (UniProt P28905)

binding [1]: binds | binding [2]: binds | binding [3]: no binding
Molecule: χ (HolC), two-hybrid fusion (from UniProt P28905 1-147)

binding [4]: no binding
B1: YoaA_T620A, two-hybrid fusion (enzyme, UniProt P76257 1-636)
chain: T1 sequence with T620A
